In US20210403541A1 one finds binding data, which are given here for 1 molecule.

Protein sequences, listed by entry. Tags and fused reporters are not part of them. Lines headed by an entry give the natural chain unless they say otherwise; changes in a name come on top. Chains listed by the source or under a name are the forms on record and can include a tag or linker.
Total Tau (P10636, form named): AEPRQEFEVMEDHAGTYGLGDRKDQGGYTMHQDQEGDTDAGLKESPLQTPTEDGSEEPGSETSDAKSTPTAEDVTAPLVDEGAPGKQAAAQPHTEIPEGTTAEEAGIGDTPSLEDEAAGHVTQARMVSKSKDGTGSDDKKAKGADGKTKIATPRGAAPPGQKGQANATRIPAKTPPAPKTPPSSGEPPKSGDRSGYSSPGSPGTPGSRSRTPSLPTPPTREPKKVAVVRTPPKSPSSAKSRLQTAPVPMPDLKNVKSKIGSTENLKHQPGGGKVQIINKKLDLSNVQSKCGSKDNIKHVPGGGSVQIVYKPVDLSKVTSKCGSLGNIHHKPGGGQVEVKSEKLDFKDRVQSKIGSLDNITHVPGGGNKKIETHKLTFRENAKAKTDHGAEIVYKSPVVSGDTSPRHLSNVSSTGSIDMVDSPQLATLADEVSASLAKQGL

These are yes or no findings as the source states them, for the method shown. Binding seen in cells or lysates may run through a third protein. Some entries that bind do so weakly or less than the wild type.

For the experiment, the target named is Total Tau (human) (UniProt P10636). The experiment is described as follows: immuno-depletion of AD brain P2 extract with the antibody and protein G beads; total tau left over measured by AlphaLISA (Tau5 / HT7 pair), given as % pull-down. (Bead proximity is the source of the signal in Alpha formats.)

B1: V1-AFM-hIgG4-S228P (antibody, V domains shown)
VH: EVQLVESGGGLVQPGGSLRLSCAASGFTFSSFALNWVRQAPGKGLEWVGHIRSKTNNYVTFYAASVKGRFTVSRDDSQNTAYLQMNSLKTEDTATYYCVRRGPRDSWFGYWGQGTLVTVSS
VL: DIVMTQSPLSLPVTLGEPASISCRSSHNIVHRNANTYLEWYLQKPGQSPQLLIYTVSNRFSGVPDRFSGSGSGTDFTLKISRVEAEDLGVYYCFQGSYLPLTFGGGTKVEIK
As for B1, the binding result is reported as “binds”.
